According to the supplement of paper PMC10849652:
Some of the results follow.

Protein sequences, listed by entry. Tags and fused reporters are not part of them. Lines headed by an entry give the natural chain unless they say otherwise; changes in a name come on top.
UniProt P43358: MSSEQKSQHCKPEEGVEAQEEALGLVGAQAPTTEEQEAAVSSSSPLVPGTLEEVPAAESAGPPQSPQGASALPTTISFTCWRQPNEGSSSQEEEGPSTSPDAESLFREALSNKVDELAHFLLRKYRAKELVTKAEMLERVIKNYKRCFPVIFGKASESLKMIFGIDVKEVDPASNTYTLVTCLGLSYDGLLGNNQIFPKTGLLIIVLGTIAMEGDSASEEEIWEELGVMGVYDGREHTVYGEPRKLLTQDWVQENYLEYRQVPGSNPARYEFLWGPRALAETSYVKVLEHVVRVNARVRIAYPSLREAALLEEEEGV
UniProt P43365, whole entry, looked up: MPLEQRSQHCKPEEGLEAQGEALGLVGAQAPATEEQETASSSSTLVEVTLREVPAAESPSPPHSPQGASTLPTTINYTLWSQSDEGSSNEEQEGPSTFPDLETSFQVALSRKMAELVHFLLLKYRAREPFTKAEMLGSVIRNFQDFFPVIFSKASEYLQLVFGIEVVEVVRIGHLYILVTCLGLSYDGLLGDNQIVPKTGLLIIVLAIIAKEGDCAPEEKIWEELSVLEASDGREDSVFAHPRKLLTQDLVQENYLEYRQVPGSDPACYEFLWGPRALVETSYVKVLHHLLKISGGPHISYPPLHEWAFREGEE
UniProt Q9BPZ7, whole entry, looked up: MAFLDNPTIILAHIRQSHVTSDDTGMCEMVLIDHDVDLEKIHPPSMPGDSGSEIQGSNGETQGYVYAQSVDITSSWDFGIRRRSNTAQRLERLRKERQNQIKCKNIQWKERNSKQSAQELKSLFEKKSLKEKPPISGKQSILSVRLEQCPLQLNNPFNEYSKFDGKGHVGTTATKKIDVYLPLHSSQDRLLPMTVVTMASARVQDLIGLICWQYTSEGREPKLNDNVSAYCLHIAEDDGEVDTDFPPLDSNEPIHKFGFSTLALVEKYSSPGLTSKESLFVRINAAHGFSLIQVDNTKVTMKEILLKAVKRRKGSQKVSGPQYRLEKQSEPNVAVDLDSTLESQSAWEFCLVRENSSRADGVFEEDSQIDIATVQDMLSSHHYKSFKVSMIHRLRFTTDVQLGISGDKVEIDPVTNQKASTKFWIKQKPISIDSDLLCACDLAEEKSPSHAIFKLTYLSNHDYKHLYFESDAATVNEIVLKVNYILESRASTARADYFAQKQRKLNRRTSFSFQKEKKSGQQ
UniProt P43357, whole entry, looked up: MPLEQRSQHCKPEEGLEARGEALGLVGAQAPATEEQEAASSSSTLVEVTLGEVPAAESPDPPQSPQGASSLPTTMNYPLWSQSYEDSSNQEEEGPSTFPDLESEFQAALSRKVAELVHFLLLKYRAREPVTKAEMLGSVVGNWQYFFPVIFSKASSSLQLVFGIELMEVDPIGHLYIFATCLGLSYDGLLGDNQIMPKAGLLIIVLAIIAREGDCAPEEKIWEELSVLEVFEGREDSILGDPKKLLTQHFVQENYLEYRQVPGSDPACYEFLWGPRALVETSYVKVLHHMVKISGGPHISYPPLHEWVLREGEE
UniProt Q8N2S1: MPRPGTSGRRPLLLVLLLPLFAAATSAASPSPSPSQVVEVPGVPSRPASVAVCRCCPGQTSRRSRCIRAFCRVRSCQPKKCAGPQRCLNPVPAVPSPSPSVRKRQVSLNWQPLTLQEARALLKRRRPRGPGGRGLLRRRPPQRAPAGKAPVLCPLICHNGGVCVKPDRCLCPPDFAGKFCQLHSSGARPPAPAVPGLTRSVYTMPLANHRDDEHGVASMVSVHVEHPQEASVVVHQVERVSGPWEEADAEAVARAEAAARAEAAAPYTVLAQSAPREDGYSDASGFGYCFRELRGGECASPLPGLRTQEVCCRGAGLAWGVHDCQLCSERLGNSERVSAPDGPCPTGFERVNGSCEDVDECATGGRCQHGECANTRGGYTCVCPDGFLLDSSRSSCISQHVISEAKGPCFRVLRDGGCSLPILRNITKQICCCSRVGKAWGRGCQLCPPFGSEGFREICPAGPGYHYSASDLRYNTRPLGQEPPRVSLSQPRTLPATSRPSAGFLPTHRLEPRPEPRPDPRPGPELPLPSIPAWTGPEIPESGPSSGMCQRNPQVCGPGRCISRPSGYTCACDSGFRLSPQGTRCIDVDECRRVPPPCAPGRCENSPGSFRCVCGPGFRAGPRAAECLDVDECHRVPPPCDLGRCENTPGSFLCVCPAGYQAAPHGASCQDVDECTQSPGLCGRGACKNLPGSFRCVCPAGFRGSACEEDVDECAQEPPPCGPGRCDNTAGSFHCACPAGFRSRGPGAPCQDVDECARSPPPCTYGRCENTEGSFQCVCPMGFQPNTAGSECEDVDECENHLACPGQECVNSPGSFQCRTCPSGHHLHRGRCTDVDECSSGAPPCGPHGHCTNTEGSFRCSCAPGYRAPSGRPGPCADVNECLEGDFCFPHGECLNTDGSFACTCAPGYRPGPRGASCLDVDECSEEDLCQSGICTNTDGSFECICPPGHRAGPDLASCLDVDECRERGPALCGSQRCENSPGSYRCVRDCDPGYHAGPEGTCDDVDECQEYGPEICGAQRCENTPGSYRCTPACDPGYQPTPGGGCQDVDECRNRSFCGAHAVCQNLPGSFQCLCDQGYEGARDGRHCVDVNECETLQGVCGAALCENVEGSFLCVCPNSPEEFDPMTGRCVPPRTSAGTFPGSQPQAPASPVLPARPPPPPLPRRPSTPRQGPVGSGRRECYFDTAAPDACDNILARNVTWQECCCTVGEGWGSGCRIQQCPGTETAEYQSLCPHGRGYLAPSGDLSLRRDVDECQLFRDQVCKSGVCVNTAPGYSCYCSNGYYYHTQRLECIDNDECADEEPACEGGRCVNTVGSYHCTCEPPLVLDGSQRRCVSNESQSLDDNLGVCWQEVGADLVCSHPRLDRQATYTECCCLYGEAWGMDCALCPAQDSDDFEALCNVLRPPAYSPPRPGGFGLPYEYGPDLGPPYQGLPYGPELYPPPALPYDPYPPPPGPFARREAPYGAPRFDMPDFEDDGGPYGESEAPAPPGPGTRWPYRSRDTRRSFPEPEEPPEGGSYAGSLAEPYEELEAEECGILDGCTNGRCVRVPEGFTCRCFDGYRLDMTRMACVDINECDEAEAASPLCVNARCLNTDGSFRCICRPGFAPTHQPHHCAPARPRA
UniProt P10636, whole entry, looked up: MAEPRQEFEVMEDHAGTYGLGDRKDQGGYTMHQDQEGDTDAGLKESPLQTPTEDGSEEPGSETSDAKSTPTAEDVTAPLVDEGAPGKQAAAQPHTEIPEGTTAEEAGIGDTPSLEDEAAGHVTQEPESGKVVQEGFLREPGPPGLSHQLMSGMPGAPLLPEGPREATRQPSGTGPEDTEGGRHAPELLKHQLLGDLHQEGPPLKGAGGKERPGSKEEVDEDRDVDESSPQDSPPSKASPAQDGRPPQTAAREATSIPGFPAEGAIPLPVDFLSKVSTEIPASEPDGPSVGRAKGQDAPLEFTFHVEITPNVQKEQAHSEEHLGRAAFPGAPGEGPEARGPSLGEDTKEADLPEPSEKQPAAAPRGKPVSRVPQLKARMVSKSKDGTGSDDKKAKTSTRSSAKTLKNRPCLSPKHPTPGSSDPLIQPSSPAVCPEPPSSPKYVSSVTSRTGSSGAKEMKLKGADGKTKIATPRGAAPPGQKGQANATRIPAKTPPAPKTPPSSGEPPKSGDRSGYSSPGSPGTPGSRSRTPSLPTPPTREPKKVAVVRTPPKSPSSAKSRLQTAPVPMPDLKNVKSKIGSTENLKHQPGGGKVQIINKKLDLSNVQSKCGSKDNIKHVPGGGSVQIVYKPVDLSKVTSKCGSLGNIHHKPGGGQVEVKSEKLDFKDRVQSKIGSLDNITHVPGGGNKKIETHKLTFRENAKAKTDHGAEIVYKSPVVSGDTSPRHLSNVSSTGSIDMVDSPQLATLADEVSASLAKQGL
UniProt P43360, whole entry, looked up: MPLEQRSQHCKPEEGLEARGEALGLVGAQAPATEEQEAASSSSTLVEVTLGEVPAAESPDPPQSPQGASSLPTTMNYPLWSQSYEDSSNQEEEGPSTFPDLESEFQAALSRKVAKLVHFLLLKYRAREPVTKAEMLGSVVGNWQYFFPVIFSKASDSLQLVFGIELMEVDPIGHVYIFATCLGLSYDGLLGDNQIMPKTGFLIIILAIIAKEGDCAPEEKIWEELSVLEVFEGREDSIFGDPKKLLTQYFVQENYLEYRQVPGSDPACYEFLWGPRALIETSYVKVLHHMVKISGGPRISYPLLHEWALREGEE
UniProt Q13164: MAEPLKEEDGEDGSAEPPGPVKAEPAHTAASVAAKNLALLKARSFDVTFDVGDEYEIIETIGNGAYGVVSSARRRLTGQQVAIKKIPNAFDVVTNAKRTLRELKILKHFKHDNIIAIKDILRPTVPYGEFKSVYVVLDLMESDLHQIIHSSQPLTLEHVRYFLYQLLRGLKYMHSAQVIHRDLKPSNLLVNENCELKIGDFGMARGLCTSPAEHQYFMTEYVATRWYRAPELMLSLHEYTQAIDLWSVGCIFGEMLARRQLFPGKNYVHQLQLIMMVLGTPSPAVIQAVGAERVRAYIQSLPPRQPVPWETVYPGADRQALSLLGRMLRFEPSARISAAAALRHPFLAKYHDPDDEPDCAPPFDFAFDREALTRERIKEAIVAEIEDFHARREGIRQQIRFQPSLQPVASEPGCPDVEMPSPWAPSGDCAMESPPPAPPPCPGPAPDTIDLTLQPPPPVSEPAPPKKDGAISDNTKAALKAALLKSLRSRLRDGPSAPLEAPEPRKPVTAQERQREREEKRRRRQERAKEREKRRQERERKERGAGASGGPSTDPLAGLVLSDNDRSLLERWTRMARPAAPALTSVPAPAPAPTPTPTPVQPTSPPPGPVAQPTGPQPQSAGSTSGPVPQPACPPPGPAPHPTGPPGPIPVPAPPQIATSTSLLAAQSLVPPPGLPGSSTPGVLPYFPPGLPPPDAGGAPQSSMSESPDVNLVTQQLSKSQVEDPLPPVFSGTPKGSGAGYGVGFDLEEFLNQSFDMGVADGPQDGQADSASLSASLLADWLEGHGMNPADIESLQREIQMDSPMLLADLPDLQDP
UniProt O60307: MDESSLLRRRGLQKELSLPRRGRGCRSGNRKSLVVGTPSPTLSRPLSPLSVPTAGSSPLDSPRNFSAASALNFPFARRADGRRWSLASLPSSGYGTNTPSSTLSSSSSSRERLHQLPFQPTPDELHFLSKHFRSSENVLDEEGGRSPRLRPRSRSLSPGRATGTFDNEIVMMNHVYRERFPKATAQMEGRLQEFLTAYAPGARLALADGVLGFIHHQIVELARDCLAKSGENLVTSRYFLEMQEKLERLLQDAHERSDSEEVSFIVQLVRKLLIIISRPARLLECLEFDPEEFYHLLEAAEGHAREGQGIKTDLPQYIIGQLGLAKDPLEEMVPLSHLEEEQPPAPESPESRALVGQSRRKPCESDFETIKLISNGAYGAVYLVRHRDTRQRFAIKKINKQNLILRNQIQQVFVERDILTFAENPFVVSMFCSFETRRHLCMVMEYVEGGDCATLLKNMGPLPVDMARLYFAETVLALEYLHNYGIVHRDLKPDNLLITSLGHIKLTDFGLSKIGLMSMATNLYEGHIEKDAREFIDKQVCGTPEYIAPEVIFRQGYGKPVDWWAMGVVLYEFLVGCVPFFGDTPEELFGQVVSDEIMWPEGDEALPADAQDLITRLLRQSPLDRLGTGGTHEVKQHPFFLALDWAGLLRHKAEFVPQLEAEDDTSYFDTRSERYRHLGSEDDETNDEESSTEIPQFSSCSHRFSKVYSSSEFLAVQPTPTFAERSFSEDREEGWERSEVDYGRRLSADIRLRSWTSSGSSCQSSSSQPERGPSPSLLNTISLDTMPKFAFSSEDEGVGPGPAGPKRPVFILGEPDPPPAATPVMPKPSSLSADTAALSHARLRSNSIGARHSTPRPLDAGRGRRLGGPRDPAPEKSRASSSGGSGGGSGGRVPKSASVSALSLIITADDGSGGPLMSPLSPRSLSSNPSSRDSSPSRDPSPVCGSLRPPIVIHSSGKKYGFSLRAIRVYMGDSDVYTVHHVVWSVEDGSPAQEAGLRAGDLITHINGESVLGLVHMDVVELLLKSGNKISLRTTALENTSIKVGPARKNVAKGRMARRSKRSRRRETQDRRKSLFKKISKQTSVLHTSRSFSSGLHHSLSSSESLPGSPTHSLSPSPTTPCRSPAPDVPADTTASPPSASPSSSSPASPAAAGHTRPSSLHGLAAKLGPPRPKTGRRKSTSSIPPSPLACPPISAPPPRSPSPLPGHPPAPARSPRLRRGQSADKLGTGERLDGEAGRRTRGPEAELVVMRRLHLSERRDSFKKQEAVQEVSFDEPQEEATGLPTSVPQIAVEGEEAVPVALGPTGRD
UniProt Q9HAY2: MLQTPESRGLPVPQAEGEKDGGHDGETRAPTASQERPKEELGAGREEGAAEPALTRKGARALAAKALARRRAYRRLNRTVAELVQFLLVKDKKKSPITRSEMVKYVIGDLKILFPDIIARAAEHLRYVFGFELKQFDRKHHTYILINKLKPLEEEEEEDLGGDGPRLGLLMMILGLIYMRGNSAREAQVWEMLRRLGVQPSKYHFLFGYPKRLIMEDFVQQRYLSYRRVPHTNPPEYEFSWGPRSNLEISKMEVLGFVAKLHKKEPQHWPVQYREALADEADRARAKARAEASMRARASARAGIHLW

Compound: CC1=C(C=C(C=C1)NC(=O)C2=CC(=CC=C2)C(C)(C)C#N)NC3=CC4=C(C=C3)N=CN(C4=O)C
Experiment: log2 fold change, soluble protein after heating vs DMSO (PISA); higher = thermal stabilisation; K562 lysate, 10 uM; active = over 0.2 and 3.5 SD of the protein, either way, in both replicates (recomputed)
In short: (§1)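 K562 pellets were dounce-homogenised in PBS pH 7.4 with 1 mM MgCl2, and the crude extract at 1 mg/mL protein was treated with 10 μM compound for 30 min. Aliquots were heated for 3 min across 48°C-58°C, pooled, and brought to 0.5% NP-40 at 4°C; soluble protein was the supernatant after 21,000xg for 90 min. Soluble protein was quantified by TMTpro 16plex LC-MS/MS with channel sums equalised, and reported as log2 fold change in thermal stability against DMSO controls, with values from duplicates.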

| Target | log2 fold change |
| --- | --- |
| MAPK15 (UniProt Q8TD08) | inactive: 0.236 |
| MAGEA4 (UniProt P43358) | inactive: 0.023 |
| MAGEA12 (UniProt P43365) | inactive: -0.016 |
| MAPKAP1 (UniProt Q9BPZ7) | inactive: 0.007 |
| LYRM1 (UniProt O43325) | inactive: 0.046 |
| LYN isoform 2 (UniProt P07948) | inactive: 0.333 |
| LYL1 (UniProt P12980) | inactive: -0.055 |
| MAGEA3 (UniProt P43357) | inactive: 0.056 |
| MAP3K3 isoform 2 (UniProt Q99759) | inactive: -0.149 |
| MACF1, A0A0A6YYJ5 | inactive: 0.011 |
| MAP3K1 (UniProt Q13233) | inactive: 0.014 |
| LTBP4 isoform 2 (UniProt Q8N2S1) | inactive: -0.012 |
| LYPLA1, A0A087X1K9 | inactive: 0.036 |
| LTO1 (UniProt Q8WV07) | inactive: -0.064 |
| MAP3K4 isoform 2 (UniProt Q9Y6R4) | inactive: -0.005 |
| MAPT isoform 7 (UniProt P10636) | inactive: -0.036 |
| MAGEA6 (UniProt P43360) | inactive: -0.165 |
| MAFF (UniProt Q9ULX9) | inactive: -0.029 |
| MAPK7 (UniProt Q13164) | inactive: -0.034 |
| MAP4K3 (UniProt Q8IVH8) | inactive: -0.067 |
| MAP3K2 (UniProt Q9Y2U5) | inactive: 0.06 |

Compound: CC1=C(C=C(C=C1)NC(=O)C2=CC(=CC=C2)N(C)C)NC(=O)C3=CC=C(C=C3)O
Experiment: as above
In short: as §1

| Target | log2 fold change |
| --- | --- |
| MAST3 (UniProt O60307) | inactive: 0.011 |
| MAPK15 (UniProt Q8TD08) | inactive: 0.065 |
| MAGEA4 (UniProt P43358) | inactive: 0.097 |
| MAPKAP1 (UniProt Q9BPZ7) | inactive: -0.034 |
| LYN isoform 2 (UniProt P07948) | inactive: -0.008 |
| MAP3K3 isoform 2 (UniProt Q99759) | inactive: 0.052 |
| MACF1, A0A0A6YYJ5 | inactive: 0.011 |
| MAP3K1 (UniProt Q13233) | inactive: 0.092 |
| LYPLA1, A0A087X1K9 | inactive: 0.039 |
| LTO1 (UniProt Q8WV07) | inactive: -0.028 |
| MAGEF1 (UniProt Q9HAY2) | inactive: -0.019 |
| MAP4K3 (UniProt Q8IVH8) | inactive: 0.129 |

Compound: CC1=CC=C(C=C1)SC2=C3C=C(SC3=CN=C2)C(=O)N
Experiment: as above
In short: as §1

| Target | log2 fold change |
| --- | --- |
| MAST3 (UniProt O60307) | inactive: -0.021 |
| MAGEA4 (UniProt P43358) | inactive: 0.054 |
| LYPLA1, A0A087X1K9 | inactive: -0.336 |
| MAGEF1 (UniProt Q9HAY2) | inactive: -0.322 |
| MAPT isoform 7 (UniProt P10636) | inactive: 0.081 |
| MAFF (UniProt Q9ULX9) | inactive: -0.078 |
| MAPK7 (UniProt Q13164) | inactive: -0.013 |
